# ChEMBL document CHEMBL1136679, “Phenylacetic acid derivatives as hPPAR agonists” (Bioorg Med Chem Lett, 2003)
# What was measured:
# in vivo [1] = details: male, Sprague-Dawley, rat, iv
# in vivo [2] = details: male, Sprague-Dawley, rat, po, 10 mg/kg
# in vivo [3] = details: male, Sprague-Dawley, rat, iv; remark: listed apart in the source
smiles,measurement,setting,value
CN(CCOc1ccc(CC2SC(=O)NC2=O)cc1)c1ccccn1 (stereo not drawn) [ROSIGLITAZONE],clearance,in vivo [1],2.6 mL/min/kg
same,bioavailability,in vivo [2],64%
same,half-life,in vivo [3],3.8 h
